From PubChem BioAssay AID485314 (National Center for Advancing Translational Sciences (NCATS), 2010)
The campaign covered roughly 340,000 compounds. About 4,500 (1.3%) were called active. Inconclusive results, whose numbers are uncertain, are shown with a selection of clear calls. The call rests on the fitted dose curve; in most records, active means well fitted inhibition curve with a large enough effect; inconclusive means small, poorly fitted or top-dose-only effect, or another doubt; inactive means no such curve, though single readings can be large or run the other way. Potencies beside an inconclusive call are fits to weak or partial responses and may not hold up.

target: DNA polymerase beta (Homo sapiens) (UniProt P06746); assay: qHTS Assay for Inhibitors of DNA Polymerase Beta; conditions: Pol beta primer extension/strand displacement, fluorescence kinetic; activity change, negative = inhibition: at 114 µM (top of the series)
Summary of the method: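 Preincubation: enzyme (10 nM) with compound, 15 min, RT. Reaction: substrate added to 50 nM final. Reads: 0 and 10 min. Analysis: normalized, Hill fit.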
On the % scale 0 is the no-effect control and ±100 the full control effect; potency means the concentration at half of the fitted maximal effect.

Row | Structure (SMILES) | Potency | activity change, negative = inhibition
1 | CCOC(=O)C1=C(c2ccccc2)N=c2s/c(=C\c3ccc(O)cc3)c(=O)n2C1c1cccs1 (centres undefined) | inconclusive: 50.1 µM [inhibitor, partial curve] | 
2 | O=C(/C=C/c1ccco1)Nc1cccc(NC(=O)/C=C/c2ccco2)n1 | active: 25.1 µM | 
3 | COC(=O)c1ccc2ccccc2c1OC1OC(CO)C(O)C(O)C1NC(C)=O (centres undefined) | inconclusive: 0.501 µM [inhibitor, full curve, poor fit] | 
4 | CCCn1c(=O)c(C(=O)NCCc2ccc(OC)cc2)c(O)c2ccccc21 | inconclusive: 39.8 µM [inhibitor, single point] | 
5 | COc1ccc2cc3cc(C(=O)Nc4cc(C)c(Cl)cc4OC)oc3nc2c1 | inactive | 
6 | Cc1cc(=O)n(Cc2ccccc2)c2c(C)cccc12 | inactive | 
7 | COc1ccc(NC(=O)CSc2oc(-c3ccc(F)cc3)nc2S(=O)(=O)c2ccc(C)cc2)c(OC)c1 | inconclusive: 8.91 µM [inhibitor, partial curve] | 
8 | Cc1ccc(CN(Cc2cc3cc4c(cc3[nH]c2=O)OCCO4)Cc2nnnn2Cc2ccco2)cc1 | active: 28.2 µM | 
9 | CC(=O)c1cccc(NS(=O)(=O)c2cc(-c3onc(C)c3C)ccc2C)c1 | inconclusive: 89.1 µM [inhibitor, single point] | 
10 | Cc1ccnc(NC(=O)c2ccc([N+](=O)[O-])o2)c1 | inconclusive: 11.2 µM [inhibitor, single point] | 
11 | O=C(Nc1ccccc1Oc1cccnc1)C1CCCN(C/C=C/c2ccccc2)C1 (centres undefined) | inconclusive: 39.8 µM [inhibitor, single point] | 
12 | O=C(COC(=O)c1ccc2c(c1Cl)C(=O)c1ccccc1C2=O)NC1CCCCC1 | inactive | 
13 | O=C(/C=C/c1ccco1)c1cccnc1 | inactive | 
14 | N#C/C(=C\c1ccc(Sc2ccc(Cl)cc2)o1)c1nc2ccccc2[nH]1 | active: 15.8 µM | 
15 | COc1ccc(CNCCCSc2nnnn2-c2ccccc2)cc1 | inactive | 
16 | CCCCOc1ccccc1NC(=O)C=C(C)C | inactive | 
17 | Cn1nc(CC(=O)Nc2cccnc2N2CCOCC2)c2ccccc2c1=O | inconclusive: 5.01 µM [inhibitor, single point] | 
18 | COc1cccc(CNC(=O)c2ccc(CNS(=O)(=O)c3ccc(C)cc3)cc2)c1 | inactive | 
19 | Cc1cccc(N2CCN(C(=O)c3cnn(-c4ccccc4Cl)c3C3CCN(C(=O)OC(C)(C)C)CC3)CC2C)c1 (centres undefined) | inactive | 
20 | c1ccc2c(c1)nc(N1CCOCC1)c1c3ccccc3[nH]c21 | inconclusive: 39.8 µM [inhibitor, full curve] | 
21 | CCOc1ccc(N(CC(=O)NC(C)C)C(=O)CCC(=O)Nc2ccccn2)cc1 | inconclusive: 3.55 µM [inhibitor, single point] | 
22 | COc1ccc(/C=C/C(=O)O)cc1S(=O)(=O)N1CCC(C)CC1 | inactive | 
23 | CCn1c(SCC(=O)Nc2cc(OC)ccc2OC)nc2c(c1=O)SCC2 | active: 22.4 µM | 

3 entries from above, with each value named:
Cn1nc(CC(=O)Nc2cccnc2N2CCOCC2)c2ccccc2c1=O
  Potency: inconclusive: 5.01 µM [inhibitor, single point]
COc1cccc(CNC(=O)c2ccc(CNS(=O)(=O)c3ccc(C)cc3)cc2)c1
  Potency: inactive
Cc1cccc(N2CCN(C(=O)c3cnn(-c4ccccc4Cl)c3C3CCN(C(=O)OC(C)(C)C)CC3)CC2C)c1 (centres undefined)
  Potency: inactive

Additional compounds follow:

Row | Structure (SMILES) | Potency | activity change, negative = inhibition
24 | COc1ccccc1C(=O)Nc1cccc(-c2cn3ccsc3n2)c1 | inconclusive: 70.8 µM [inhibitor, single point] | 
25 | COc1cc([N+](=O)[O-])cc(/C=N/NC(=O)CC#N)c1O | inconclusive: 20 µM [inhibitor, partial curve] | 
26 | O=C(CC1SC(=Nc2ccccc2)N(CCO)C1=O)Nc1ccccc1 (centres undefined) | inconclusive: 25.1 µM [inhibitor, single point] | 
27 | CCn1c(SCc2cccc(Br)c2)nnc1-c1nonc1NC(C)=O | inactive | 
28 | CCc1ccc(OCCCC(=O)NCc2ccco2)cc1 | inconclusive: 39.8 µM [inhibitor, partial curve] | 
29 | O=P(O)(O)c1ccccc1OCCOCCOc1ccccc1P(=O)(O)O | inconclusive: 56.2 µM [inhibitor, partial curve, poor fit] | 
30 | COc1ccc(/C=N/NC(=O)Nc2cccc3nsnc23)c(OC)c1 | inconclusive: 10 µM [inhibitor, partial curve] | 
31 | CCOC(=O)CN1C(C(=O)c2ccccc2)=C(OC(=O)C(C)(C)C)c2ccccc2S1(=O)=O | inconclusive: 70.8 µM [inhibitor, single point] | 
32 | CCOC(=O)c1c(NC(=O)COc2ccc(Br)cc2)sc2c1CCCC2 | inconclusive: 89.1 µM [inhibitor, single point] | 
33 | Cc1ccc(C2=NS(=O)(=O)N(C)C(C(=O)NC3CCCCC3)=C2)cc1 | inconclusive: 0.1 µM [inhibitor, full curve] | 
34 | Cc1ccc(-n2c(-c3cnccn3)n[nH]c2=S)c(Br)c1 | inconclusive: 2.24 µM [inhibitor, single point] | 
35 | CCN1CC(CNCc2cn(-c3ccc(OC)cc3)nc2-c2ccccc2Cl)CC1=O (centres undefined) | inconclusive: 0.708 µM [inhibitor, full curve, poor fit] | 
36 | COc1ccc(NC(=O)O/N=C/c2c(C)nn(C(C)(C)C)c2C)cc1 | inconclusive: 89.1 µM [inhibitor, single point] | 
37 | CCn1c(CNC(C)=O)nnc1SCC(=O)c1ccc(Br)cc1 | inconclusive: 1.41 µM [inhibitor, full curve] | 
38 | Cc1ccc(N=CNc2ccc(C)cc2C)c(C)c1 | inactive | 
39 | COc1ccc2c3c(cccc13)OC2=O | inconclusive: 3.55 µM [inhibitor, partial curve, poor fit] | 
40 | O=C(O)C(c1ccccc1)N1C(=O)/C(=C\c2ccc(-c3cccc(Cl)c3)o2)SC1=S (centres undefined) | active: 50.1 µM | 
41 | Cc1ccc(C)c(NC(CC(=O)c2ccccc2)C(=O)OCC(=O)c2cccs2)c1 (centres undefined) | inconclusive: 4.47 µM [inhibitor, single point] | 
42 | CCOc1ccccc1NC(=O)N1c2ccccc2Sc2ccccc21 | inconclusive: 0.316 µM [inhibitor, full curve, poor fit] | 
43 | N/C(=N\S(=O)(=O)c1ccc(Cl)cc1)N1CCOCC1 | inconclusive: 89.1 µM [inhibitor, single point] | 
44 | Cc1cccc(NC(=S)NNC(=O)c2csc(C)c2)c1 | inconclusive: 56.2 µM [inhibitor, single point] | 
45 | CCn1ccc2cc(S(=O)(=O)N3CCC(C(=O)NCc4cccc(Cl)c4)CC3)ccc21 | inconclusive: 89.1 µM [inhibitor, single point] | 
46 | NS(=O)(=O)c1ccc(N=Nc2c[nH]c(=O)c(O)c2)cc1 | inconclusive: 31.6 µM [inhibitor, partial curve, poor fit] | 

Row | Structure (SMILES) | Potency | activity change, negative = inhibition
47 | CCOC(=O)c1cc(NC(=O)/C=C\C(=O)O)ccc1Cl | inactive | 
48 | O=C(N/N=C\c1ccc([N+](=O)[O-])o1)C1COc2ccccc2O1 (centres undefined) | inactive | 
49 | Cc1ccc(Cn2c(N3CCNCC3)nc3c2c(=O)[nH]c(=O)n3C)cc1 | inconclusive: 0.794 µM [inhibitor, full curve, poor fit] | 
50 | COC(=O)c1ccc(Cl)cc1N(Cc1c(F)cccc1Cl)S(C)(=O)=O | inconclusive: 79.4 µM [inhibitor, single point] | 
51 | CCOC(=O)c1ccc(CC(=O)c2ccc(O)c(O)c2O)o1 | active: 1.12 µM | 
52 | N#C/C(=C/c1ccc(-c2ccccc2[N+](=O)[O-])o1)C(N)=O | inconclusive: 56.2 µM [inhibitor, partial curve, poor fit] | 
53 | CSCC[C@H](NC(=O)C1=NN(c2c(F)c(F)cc(F)c2F)C(=O)CC1)c1nc2ccccc2[nH]1 |  | inconclusive: -31.5% [inhibitor]
54 | Cc1cccc(NC(=O)NNC(=O)COc2ccc(Cl)cc2)c1 | inconclusive: 0.1 µM [inhibitor, full curve, poor fit] | 
55 | CCN1CCN(c2nc(Nc3cccc(F)c3)nc(N)c2[N+](=O)[O-])CC1 | inconclusive: 89.1 µM [inhibitor, single point] | 
56 | COc1ccc(S(=O)(=O)/N=C2/NC(=O)/C(=C\c3ccco3)S2)cc1 | active: 25.1 µM | 
57 | CCCCOC(=O)Cn1nnc2sc(-c3ccccc3)cc2c1=O | inconclusive: 31.6 µM [inhibitor, full curve] | 
58 | COc1ccc(-c2nnc(C3CCN(S(=O)(=O)c4ccccc4)CC3)o2)cc1 | inconclusive: 0.282 µM [inhibitor, full curve] | 
59 | Cc1cc(C)c(C#N)c(OCc2ccc(Cl)nc2)n1 | inconclusive: 39.8 µM [inhibitor, single point] | 
60 | CCCc1cc(=O)[nH]c(SCC(=O)N2N=C(c3ccc(Cl)cc3)CC2c2ccco2)n1 (centres undefined) | inconclusive: 44.7 µM [inhibitor, partial curve, poor fit] | 
61 | CC1(C)C(c2ccco2)=[N+]([O-])C2(CCCCC2=O)N1O (centres undefined) | inconclusive: 39.8 µM [inhibitor, single point] | 
62 | C=CCn1c(-c2sc3nc(C)cc(C)c3c2N)n[nH]c1=S | inconclusive: 100 µM [inhibitor, single point] | 
63 | Cc1cc(C)c2[nH]c(C(=O)Nc3ccc4c(c3)OCO4)cc2c1 | inconclusive: 39.8 µM [inhibitor, partial curve] | 
64 | O=C(N/N=C/c1ccc(N2CCCCC2)o1)C(O)(c1ccccc1)c1ccccc1 | inactive | 
65 | O=C(Cc1ccc(Cl)cc1)N/N=C/c1ccccc1 | inconclusive: 2 µM [inhibitor, partial curve] | 
66 | COc1ccc(C(=O)OCC(=O)NCCCc2ccccc2)c(OC)c1 | inactive | 
67 | O=C(NNC(=O)C1CCN(S(=O)(=O)c2cccc(Cl)c2)CC1)C1CC1 |  | inconclusive: -36.3% [inhibitor]
68 | Cc1ccc(SCCCCN2CCOCC2)cc1 | inconclusive: 20 µM [inhibitor, single point] | 
69 | O=C(c1ccc(Br)cc1)C1CCc2occc2C1=O (centres undefined) | inconclusive: 63.1 µM [inhibitor, partial curve] | 
